Results are given in words; binding and its absence hold for the method and conditions named. For some assays here: Binding seen in cells or lysates may run through a third protein. Some binding calls cover weakened binding; strength is not graded here. Sequences can lack the tags named with a protein. Blank lines part the entries; values can stand above or below the binder they belong to.
What was measured:
[1] = target: T1, Flag-OSBPL2 (mouse) (UniProt Q8BX94); experiment: co-IP; HEK293Ta cells expressing HA-Inpp5e and Flag-OSBPL2, RIPA lysate, anti-FLAG M2 magnetic beads overnight at 4°C, washed at least 5 times with RIPA, Western blot
T1 sequence: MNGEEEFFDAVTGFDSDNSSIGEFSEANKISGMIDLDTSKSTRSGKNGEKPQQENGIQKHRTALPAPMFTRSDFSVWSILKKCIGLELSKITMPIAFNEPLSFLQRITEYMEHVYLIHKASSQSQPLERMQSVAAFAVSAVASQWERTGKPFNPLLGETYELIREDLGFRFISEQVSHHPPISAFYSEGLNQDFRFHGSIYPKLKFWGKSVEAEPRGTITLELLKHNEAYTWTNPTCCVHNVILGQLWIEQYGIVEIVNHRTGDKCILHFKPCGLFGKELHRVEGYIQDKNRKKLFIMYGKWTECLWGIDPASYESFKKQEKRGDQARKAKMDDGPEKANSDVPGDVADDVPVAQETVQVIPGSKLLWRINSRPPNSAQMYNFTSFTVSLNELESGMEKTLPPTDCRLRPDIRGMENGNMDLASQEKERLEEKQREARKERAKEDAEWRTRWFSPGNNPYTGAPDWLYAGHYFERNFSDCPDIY

[2] = target: T2, GST-OSBPL2 (mouse) (UniProt Q8BX94); experiment: pull-down; purified GST-OSBPL2 (or GST) and His-INPP5E incubated with Glutathione Agarose overnight at 4°C, washed in IP Lysis Buffer at least 3 times, Western blot; both purified
T2 sequence: T1 sequence

- binding [1]: binds
B1: HA-Inpp5e (protein, UniProt Q9JII1 1-647)
chain: MPSKSACLRHTEAPGQLEGRMLQGQPPNTEKKLIPTPGFLPASDSQGSETNPMPPFSIPAKTSNQNPQTKANLITPQPPIRPKLERTLSLDDKGWRRRRFRGSQEDLTVQNGASPCRGSLQDSVAQSPAYSRPLPCLSTSLQEIPKSRRATGSEGGSPSLWSDCLSGMISTSLDLLHRDAASGGPPSRLASLHASHTPPAMDLSIASSSLRTANKVDPEHTDYKLRMQTRLVRAHSNLGPSRPRSPLAGDDHSIHSARSFSLLAPIRTKDIRSRSYLEGSLLASGALLGAEELARYFPDRNMALFVATWNMQGQKELPASLDEFLLPTEADYTQDLYVIGIQEGCSDRREWETRLQETLGPQYVLLSSAAHGVLYMSLFIRRDLIWFCSEVEYSTVTTRIVSQIKTKGALGVSFTFFGTSFLFITSHFTSGDGKVAERLLDYSRTIQALALPRNVPDTNPYRSSAGDVTTRFDEVFWFGDFNFRLSGGRVAVEAFLKQKPEVDVLALLQHDQLTREMKKGSIFRGFEEAEIHFLPSYKFDIGKDTYDSTSKQRTPSYTDRVLYKSRHKGDICPMKYSSCPGIKTSDHRPVYGLFQVKVRPGRDNIPLAAGKFDRELYLIGIKRRISKEIQRQEALKSQSSSAVCTVS

- binding [2]: binds
B2: His-INPP5E (protein, UniProt Q9JII1 1-647)
chain: B1 chain

From PMC8876550
